The experiment can be described thus: qHTS Assay for Lipid Storage Modulators in Drosophila S3 Cells.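 For cell number change: cells counted by Cell Tracker Red CMTPX staining in the red channel.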 Particulars: BODIPY lipid droplet fluorescence, 18-24 h; for cell number change: measured here: cell count max response, cells fed with added oleic acid. The procedure, abridged: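 Laser-scanning cytometry quantifies lipid droplet accumulation (500–530 nm total intensity; droplet/cell object ratio) in oleic acid-fed (400 uM added) Drosophila S3 cells treated with a concentration series. 20 uM Triacsin C defined 100% inhibition.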
A general note: Quantitative high-throughput screening tests each substance at several concentrations.

[1] abbreviates: measured here: cell number channel AC50, cells fed with added oleic acid.
The mark [2] stands for this setting: measured here: lipid fluorescence (Fed channel) AC50, cells fed with added oleic acid.

The text below walks through data of PubChem BioAssay AID2685 (National Center for Advancing Translational Sciences (NCATS), 2010).

This is one part of the list. The main result of the screen is listed elsewhere. These columns were measured beside it and carry no call. The list favours compounds with an active or inconclusive main result. The note in brackets gives the kind of curve behind each potency; many fits are weak.

As a reminder, the AC50 is the midpoint of the concentration-response curve, whichever way the signal moves. `COc1ccc(-c2cc(C(F)(F)F)nc(S(=O)(=O)CCCC(=O)Nc3cccc(O)c3)n2)cc1OC`: the cell number change was -62.7%. In addition, under setting [1], the AC50 is 0.58 µM [falling, full curve]. Moreover, the AC50 under setting [2] was 1.03 µM [falling, full curve].
On to `COc1cc(CC(=O)Nc2nc(-c3ccc(F)c(F)c3)cs2)cc(OC)c1OC`, for which the cell number change worked out at 28.6%. Under setting [2], the AC50 was 0.206 µM [falling, partial curve, poor fit].
For `CCCCc1cc(=O)oc2cc(C)cc(OCC(=O)NC(Cc3ccc(Cl)cc3)C(=O)O)c12` (stereo unspecified), the cell number change is 10.4%. Besides, the AC50 under setting [1] was 0.00411 µM [rising, full curve, poor fit]. For the same molecule, the AC50 under setting [2] was 29.1 µM [rising, single point].
`CC(Sc1nn(-c2ccc(F)cc2)c(=S)s1)C(=O)c1c(N)n(C)c(=O)n(C)c1=O` (stereo unspecified): the cell number change is 15.1%. Further, under setting [1], the AC50 was 0.82 µM [rising, full curve, poor fit].
`O=S(=O)(c1cccs1)n1nnc2ccccc21`: the cell number change is -3.49%. Also, the AC50 under setting [2] was 6.51 µM [falling, single point].
Turning to `COc1ccccc1N1CCN(C(=S)Nc2ccccc2)CC1`, the cell number change is -5.47%.
Regarding `O=C(Cn1c(=O)sc2ccccc21)OC(CCl)CCl`, the cell number change was -23.7%. Also, the AC50 under setting [1] was 0.058 µM [falling, full curve, poor fit].
On to `CSc1nc(-c2ccccc2F)c(C#N)c(=O)n1C`, for which the cell number change is -53.4%. The half-maximal activity concentration (AC50) under setting [1] was 0.92 µM [falling, full curve]. Moreover, the AC50 under setting [2] was 5.17 µM [falling, single point].
Regarding `O=C(NCc1ccccn1)Nc1ccc(Br)cc1Cl`, the cell number change came to 8.96%. In addition, under setting [2], the half-maximal activity concentration (AC50) was 6.51 µM [rising, single point].
As to `CCOC(=O)Cc1csc(NS(=O)(=O)c2ccc(NC(C)=O)cc2)n1`, the cell number change amounted to 14.7%. For the same molecule, the AC50 under setting [2] was 6.51 µM [rising, single point].
For `N[C@H](CSCc1ccccc1)C(=O)Nc1ccc([N+](=O)[O-])cc1`, the cell number change was -11.3%. Further, the AC50 under setting [2] is 0.58 µM [rising, single point].
Consider `CCCC(=O)Nc1ccc(C(=O)Nc2nc(CC(=O)OCC)cs2)cc1`, for which the AC50 under setting [1] is 0.651 µM [falling, single point].
Take `Cc1noc(C)c1CN(C(=S)NC1CC2CCC1C2)c1ccccc1` (stereo unspecified): the cell number change turned out to be 35.4%. Moreover, the AC50 under setting [1] was 29.1 µM [rising, single point].
Consider `CC1(C(=O)N/N=C/c2ccc([N+](=O)[O-])o2)CC1(Br)Br` (stereo unspecified), for which the cell number change is -71.1%. In addition, the AC50 under setting [1] is 2.06 µM [falling, partial curve]. Besides, the AC50 under setting [2] is 2.59 µM [falling, full curve].
For the molecule `Cc1ncc([N+](=O)[O-])n1CC(=O)NC1CCCCCC1`, the cell number change is -0.84%. The AC50 under setting [1] is 3.26 µM [falling, single point]. Besides, the AC50 under setting [2] is 6.51 µM [falling, single point].
For `NC(=O)c1nsc(C(=O)N(c2cccc(F)c2)C(C(=O)NCc2ccccc2)c2ccc(O)cc2)c1N` (stereo unspecified), the cell number change came out at 19.2%. In addition, the AC50 under setting [2] is 0.517 µM [falling, single point].
With `Cc1nc(SCc2ccccc2C)n[nH]1`, the cell number change amounted to 126%. Besides, the AC50 under setting [1] is 25.9 µM [rising, single point]. The AC50 under setting [2] is 0.13 µM [rising, full curve, poor fit].
`COc1ccc(-c2nc(CS(=O)CC(=O)NCc3ccco3)c(C)o2)cc1` (stereo unspecified): the cell number change is 31.5%. Besides, the AC50 under setting [1] was 6.51 µM [rising, single point]. Besides, under setting [2], the AC50 is 14.6 µM [rising, partial curve].
Take `CCOc1ccc(NC(=O)N2CCN(c3nc4ccccc4s3)CC2)cc1`: the cell number change is -18.1%. Besides, the AC50 under setting [1] is 0.146 µM [falling, single point]. Moreover, under setting [2], the AC50 was 6.51 µM [falling, single point].
For `Cc1ccc(N2CC3=C(C2=O)C(c2ccccc2)NC(=O)N3C)cc1` (stereo unspecified), the cell number change is -1.93%.
Regarding `CCOCCn1c(CN2CCc3ccccc3C2)nc2c1c(=O)n(C)c(=O)n2C`, the cell number change was -27.5%. For the same molecule, under setting [2], the AC50 was 29.1 µM [falling, single point].
On to `Cc1cccc2sc(NNC(=O)c3ccc(S(=O)(=O)N4CC(C)CC(C)C4)cc3)nc12` (stereo unspecified), for which the cell number change was -19.1%. Moreover, the AC50 under setting [2] was 29.1 µM [falling, single point].
Consider `O=C(O)CSCC(=O)N1CCc2c([nH]c3ccccc23)C1C(F)(F)F` (stereo unspecified), for which the cell number change was found to be 13.3%. Besides, under setting [2], the AC50 is 25.9 µM [rising, single point].
With `COCC(O)CSc1nc(C)[nH]c1[N+](=O)[O-]` (stereo unspecified), the cell number change was -70.6%. The AC50 under setting [1] was 16.4 µM [falling, single point].
In the case of `Cn1cccc1/C=C1\SC(=S)N(NC(=O)c2ccccc2O)C1=O`, the cell number change is -48.3%. The half-maximal activity concentration (AC50) under setting [1] is 32.6 µM [falling, partial curve, poor fit]. The AC50 under setting [2] was 7.31 µM [falling, partial curve].
Regarding `Cc1nc(NC(=O)C23CCC(C)(C(=O)O2)C3(C)C)sc1C` (stereo unspecified), the cell number change stood at 16%.
`Fc1cc(F)cc(NC(=S)NN2CCOCC2)c1`: the cell number change is -32.7%. In addition, the AC50 under setting [1] is 32.6 µM [falling, single point]. Besides, the AC50 under setting [2] is 13 µM [falling, partial curve, poor fit].
In the case of `Cc1cc(OC(=O)c2cc(Cl)nc3ccccc23)ccc1Cl`, the cell number change was -51.5%. Moreover, the AC50 under setting [1] is 20.6 µM [falling, single point].
For `CCOc1ccc(-c2cc(CCCC(=O)NCCc3ccccc3)no2)cc1`, the concentration at half-maximal activity (AC50) is, setting by setting: under setting [1], 2.31 µM [rising, partial curve]; under setting [2], 4.11 µM [rising, partial curve].
Consider `COc1ccc(CCNC(=O)CN2C(=O)C3(OCCCO3)c3ccccc32)cc1OC`, for which the cell number change was -11.7%. In addition, the AC50 under setting [2] was 29.1 µM [falling, single point].
Take `COC(=O)C1=CN(Cc2ccc(OC)cc2)C=C(C(=O)OC)C1c1ccsc1`: the cell number change is -30.3%. Also, the AC50 under setting [1] was 32.6 µM [falling, partial curve, poor fit].
As to `CCCc1sc(N)nc1-c1ccc(C)cc1`, the cell number change is -46.5%. Also, the AC50 under setting [1] is 29.1 µM [falling, single point]. For the same molecule, under setting [2], the AC50 was 6.51 µM [rising, single point].
As for `CCn1cc(C(=O)NCc2ccco2)c(=O)c2ccc(C)nc21`, the AC50 is 1.3 µM [rising, partial curve] under setting [1] and 6.51 µM [rising, single point] under setting [2].
As for `COc1cc(OC)cc(C(=O)OC/C(O)=C(\C#N)c2nc3ccccc3[nH]2)c1`, the cell number change was -34.9%. The AC50 under setting [1] is 16.4 µM [falling, partial curve]. Further, the AC50 under setting [2] was 32.6 µM [falling, partial curve].
For the molecule `O=C(CCCOc1ccc(Cl)cc1Cl)N/N=C\C1CCCCC1`, the cell number change was -20.4%. Moreover, the AC50 under setting [1] was 0.82 µM [rising, single point]. The AC50 under setting [2] was 2.91 µM [rising, single point].
Take `Clc1ccccc1-c1ncc(-c2ccccc2)o1`: the cell number change was -12.6%. Besides, the AC50 under setting [2] was 18.4 µM [falling, single point].
For the molecule `CCCN(CC(=O)Nc1ccccc1C)C(=O)c1ccc(N2CCCCCC2)c([N+](=O)[O-])c1`, the cell number change is -39.3%. Further, the half-maximal activity concentration (AC50) under setting [1] is 10 µM [falling, partial curve]. Moreover, the AC50 under setting [2] is 10 µM [falling, partial curve].
As to `CCc1ccccc1-n1c(SCC(=O)Nc2ccc3c(c2)OCCO3)nc2[nH]ncc2c1=O`, the cell number change was -14.8%. For the same molecule, the AC50 under setting [1] was 0.082 µM [falling, full curve, poor fit]. Besides, under setting [2], the AC50 is 0.231 µM [rising, full curve].
As for `O=C1[C@H]2[C@H](ON3CCCC[C@H]23)C(=O)N1c1cccc(C(F)(F)F)c1`, the cell number change is -31.4%.
In the case of `CC12COC3(C(=O)Nc4ccc([N+](=O)[O-])cc4)CC1CCC32C` (stereo unspecified), the cell number change was -31.5%. Besides, the AC50 under setting [1] is 20.6 µM [falling, single point]. Besides, under setting [2], the AC50 was 0.517 µM [falling, partial curve, poor fit].
On to `Cc1ccc(C)c(OCC(=O)NC(Cc2c[nH]c3ccccc23)C(=O)O)c1` (stereo unspecified), for which the cell number change was 20.3%. Besides, under setting [2], the AC50 is 0.411 µM [falling, single point].
Regarding `O=C(Cn1cnc2sc3c(c2c1=O)CCCC3)NCC(=O)Nc1ccc(F)cc1F`, the cell number change came to 18.2%. For the same molecule, the AC50 under setting [2] is 23.1 µM [rising, partial curve].
Turning to `CCCCS(=O)(=O)c1sc2nc3c(cc2c1N)CCCC3`, the cell number change was -19.6%. Moreover, under setting [2], the AC50 was 4.11 µM [rising, partial curve].
With `COc1ccc(-c2nc(CSCC(=O)NCc3ccc4c(c3)OCO4)c(C)o2)cc1OC`, the cell number change was -15.6%.
For `Cn1c(SCc2ccc(Cl)cc2)nc(C(F)(F)F)cc1=O`, the cell number change came out at 0.636%. Besides, the AC50 under setting [2] is 29.1 µM [rising, partial curve, poor fit].
Regarding `Cc1ccc(-n2c(SCC(=O)Nc3ccc4c(c3)OCO4)nnc2-c2ccoc2C)cc1`, the cell number change turned out to be 4.04%. Moreover, the AC50 under setting [1] was 0.116 µM [rising, full curve, poor fit]. Further, the AC50 under setting [2] is 0.103 µM [rising, full curve].
Regarding `O=c1cc2c(nn1Cc1ccccc1Cl)-c1ccccc1CC2`, the cell number change is 9.06%. Further, the AC50 under setting [2] is 7.31 µM [rising, partial curve].
As for `Cc1ccc2nc(-c3ccc(NC(=O)CNC4CC4)cc3)sc2c1`, the cell number change stood at 28.2%. Also, the AC50 under setting [2] is 18.4 µM [rising, single point].
For the molecule `Cc1onc(-c2ccccc2)c1C(=O)Nc1nncs1`, the cell number change was 1.26%.
For `CCOc1ccc(-c2cn3ccccc3n2)cc1`, the cell number change is -39.8%. In addition, the AC50 under setting [1] was 5.8 µM [falling, full curve]. In addition, under setting [2], the AC50 was 29.1 µM [falling, partial curve, poor fit].
Regarding `CC(=O)c1ccc(-n2nncc2-c2ccc([N+](=O)[O-])cc2)cc1`, the cell number change turned out to be 66.6%. Also, under setting [1], the AC50 was 29.1 µM [rising, partial curve, poor fit]. The AC50 under setting [2] was 29.1 µM [rising, partial curve, poor fit].
With `O=C1CCCCC1Sc1nnc(Cc2cccs2)n1CCc1ccccc1` (stereo unspecified), the cell number change stood at 32.1%. The AC50 under setting [1] is 0.206 µM [rising, partial curve]. The AC50 under setting [2] is 8.2 µM [rising, partial curve, poor fit].
As to `CC(=O)c1c(C)[nH]c(C(=O)Nc2ccc(Cl)cc2)c1C`, the cell number change is 10.8%. Under setting [2], the concentration at half-maximal activity (AC50) is 0.082 µM [rising, partial curve, poor fit].
Take `Cc1ccc(NC(=O)/C(C#N)=C/c2ccc(Sc3nc(C)cc(C)n3)o2)cc1`: the cell number change is 41.8%. The AC50 under setting [1] was 9.2 µM [rising, partial curve, poor fit].
